# Values from PubChem BioAssay AID686943 (Drosophila RNAi Screening Center, 2013)
# Screen: 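Search across the genome for regulators of signalling from receptor tyrosine kinase to ERK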 (primary screen)
# System: Drosophila S2R+ haemocyte-like cells expressing YFP-tagged ERK (Rolled)
# Reagent: long dsRNA against Drosophila genes
# Treatment: insulin stimulation versus unstimulated cells; dose and duration not given
# Measurement: 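Per-plate z-scores of phospho-ERK immunostaining normalised to YFP-tagged ERK, measured with and without insulin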
# Reading the numbers: replicate 1, z-score of dpERK with insulin and replicate 2, z-score of dpERK with insulin: higher = more active ERK per ERK-YFP after insulin; replicate 1, z-score of dpERK under basal conditions: higher = more basal active ERK per ERK-YFP; replicate 1, z-score of ERK-YFP with insulin: higher = more YFP-tagged ERK signal
# The screen tested about 23,000 reagents; below is a random part of those that have a named target and a result. 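Extra replicates exist only for a retested subset of genes; insulin dose and duration not given; both raised and lowered dpERK matter.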 Names joined by + are all predicted targets of the reagent. No sequences are given here. The record does not give: the amount of reagent, the time to read-out.
target gene,DRSC id,"replicate 1, z-score of dpERK with insulin","replicate 2, z-score of dpERK with insulin","replicate 1, z-score of dpERK under basal conditions","replicate 1, z-score of ERK-YFP with insulin"
CG43312,DRSC11559,0.14,0.45,0.15,0.18
CG30043,DRSC06285,-0.04,-0.51,-0.59,0.03
alpha-Spec,DRSC08704,-1.1,-1.18,1.25,0.64
Zasp52,DRSC06269,-4.14,-3.74,-2.17,-0.37
Zasp52,DRSC07121,-0.43,-0.01,-0.22,0.47
RpLP0,DRSC11878,-1.29,-1.75,0.53,-2.62
RpLP0,DRSC22110,-1.54,-1.64,7.14,-4.01
CR42745 (retired record),DRSC13756,0.38,0.56,-0.46,-0.76
CG42336,DRSC05273,0.39,-0.92,-0.6,-0.44
CG42336,DRSC06332,0.31,0.6,2.1,-0.39
CG42336,DRSC06333,0.19,-0.31,-0.16,0.09
mfrn,DRSC15687,-0.7,-0.12,-0.19,0.35
AOX3,DRSC15955,0.3,0.49,-0.56,1.79
CG1850,DRSC06762,-0.13,0.85,-0.41,-0.18
mIF3,DRSC06290,0.15,-0.16,0.48,-0.02
Odc2,DRSC07483,0.21,0.7,-0.52,0.25
Rdl,DRSC08967,0.18,0.35,-0.2,0.74
Rdl,DRSC11264,0.03,0.19,-0.78,0.84
AP-1mu,DRSC14089,-0.89,-0.16,-0.31,-0.32
CG32488,DRSC08549,0.82,0.73,1.36,0.07
CG32488,DRSC21537,-0.17,0.09,0.04,-0.22
CG32277,DRSC08196,1.41,0.79,0.73,0.52
CG13365,DRSC17899,0.26,0.45,2.05,-0.1
CG17575,DRSC06682,0.31,0.31,-0.33,0.51
Spn31A,DRSC02780,-0.78,-0.25,-1.32,-0.05
Dph2,DRSC16222,0.04,0.16,-0.19,-2.95
CG15708,DRSC06579,-0.77,-0.05,0.43,0.48
Ald1,DRSC14109,-0.56,-1.97,-0.75,-1.18
CG42375 + CG9288,DRSC16468,0.89,-0.4,-0.22,-0.34
Osi16,DRSC12135,0.82,-0.62,0.05,0.08
Osi16,DRSC21323,0.71,0.33,-1.02,-0.19
CG15814,DRSC19730,-0.72,-0.17,-2.48,-0.59
CG12723,DRSC19499,0.53,0.05,0.47,0.52
Cpr47Eb,DRSC06345,0.84,-0.07,0.77,0.25
CR43670 + grp + CR43671 + 1 more,DRSC03541,0.33,0.38,-0.82,-0.28
Caf1-105,DRSC06209,-0.72,-0.39,-1.41,0.35
Mst84Dd,DRSC12600,0.28,-0.22,-0.5,0.48
bon,DRSC16914,-0.61,-0.87,-0.56,0.47
trx,DRSC17089,-0.87,-0.01,0.19,0.21
CG12920,DRSC06234,1.94,0.45,-0.6,0.26
CG42810,DRSC02533,0.9,0.64,-0.11,-0.28
CG13639,DRSC14638,0.46,0,0.75,0.41
kz,DRSC18786,-0.31,0.68,1.44,-0.46
Cpr5C,DRSC18340,0.65,-0.09,0.24,0.15
ref(2)P,DRSC03601,1.02,1.44,0.51,0.35
CG12320,DRSC14498,0.5,0.13,0.03,0.01
CG13461,DRSC10008,-0.77,-0.19,0.26,1.26
CG14455,DRSC11712,-0.61,-0.46,-0.14,-0.11
CG31517,DRSC13010,-0.18,-0.19,-1.44,0.38
CG1722,DRSC20547,0.02,0.07,-0.43,0.38
BuGZ,DRSC02642,-1.32,-0.32,1.35,0.48
BuGZ,DRSC02643,-0.1,0.2,0.86,0.05
CG8366,DRSC07153,2.22,0.84,0.36,0.93
Spase25,DRSC19776,0.51,0.38,-0.7,0.07
CG5762,DRSC15869,-0.45,-0.56,-0.28,0.19
His4:CG33883 + His4:CG33889 + His4:CG33899 + 20 more,DRSC21268,-4.25,-3.67,-3.17,-3.69
smo,DRSC00837,0.52,-0.36,0.35,-1.12

Reprinted from the entries so far (4 entries):
target gene,DRSC id,"replicate 1, z-score of dpERK with insulin","replicate 2, z-score of dpERK with insulin","replicate 1, z-score of dpERK under basal conditions","replicate 1, z-score of ERK-YFP with insulin"
Mst84Dd,DRSC12600,0.28,-0.22,-0.5,0.48
bon,DRSC16914,-0.61,-0.87,-0.56,0.47
trx,DRSC17089,-0.87,-0.01,0.19,0.21
CG12920,DRSC06234,1.94,0.45,-0.6,0.26
